# In all, about 390,000 compounds went through this assay and about 910 (0.23%) were called active. The inconclusive results got no clear call from the source; some entries with a clear call stand among them for comparison. Calls follow the shape of the dose curve; as a rule, active = well fitted inhibition curve with a large enough effect; inconclusive = small, poorly fitted or top-dose-only effect; inactive = no such curve, though single readings can be large or run the other way. A potency beside an inconclusive call is a rough fit, not a confirmed value.
# Protein sequences, listed by entry. Tags and fused reporters are not part of them. Lines headed by an entry give the natural chain unless they say otherwise; changes in a name come on top.
# UniProt O94782: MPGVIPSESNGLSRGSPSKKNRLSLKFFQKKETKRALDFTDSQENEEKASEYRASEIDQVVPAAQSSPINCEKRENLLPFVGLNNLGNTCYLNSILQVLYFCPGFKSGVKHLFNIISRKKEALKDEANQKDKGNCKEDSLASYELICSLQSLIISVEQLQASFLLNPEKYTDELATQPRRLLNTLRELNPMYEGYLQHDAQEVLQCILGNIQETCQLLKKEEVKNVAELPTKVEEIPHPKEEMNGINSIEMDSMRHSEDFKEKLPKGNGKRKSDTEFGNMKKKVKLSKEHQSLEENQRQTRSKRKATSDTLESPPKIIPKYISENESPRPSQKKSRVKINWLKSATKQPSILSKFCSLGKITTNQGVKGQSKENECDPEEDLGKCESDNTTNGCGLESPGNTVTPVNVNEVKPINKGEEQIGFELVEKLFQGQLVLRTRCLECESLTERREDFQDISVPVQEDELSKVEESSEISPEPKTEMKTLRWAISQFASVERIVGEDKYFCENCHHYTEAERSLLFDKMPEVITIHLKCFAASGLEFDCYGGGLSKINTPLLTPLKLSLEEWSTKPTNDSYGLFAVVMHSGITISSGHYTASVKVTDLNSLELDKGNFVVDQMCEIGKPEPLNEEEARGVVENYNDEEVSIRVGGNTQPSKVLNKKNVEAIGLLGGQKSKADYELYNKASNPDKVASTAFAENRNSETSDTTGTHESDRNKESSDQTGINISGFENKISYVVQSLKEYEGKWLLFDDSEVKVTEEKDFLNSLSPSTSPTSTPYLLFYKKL
# Target: Ubiquitin carboxyl-terminal hydrolase 1 (Homo sapiens) (UniProt O94782)
# Assay: Inhibitors of USP1/UAF1: Primary Screen; also: nearly all actives have a fitted effect of over 60% in size
# Conditions: recombinant USP1/UAF1, Ub-Rhodamine cleavage fluorescence; activity change, negative = inhibition: at 57.1 µM (top of the series)
# In short: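 USP1/UAF1 complex at 1 nM was preincubated with compound for 15 min at room temperature, then Ub-Rho substrate (150nM final) was added. Fluorescence (480/540 nm) was read kinetically, 6 reads every 60 seconds.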
# % is scaled to controls: 0 for no effect and ±100 for the full control effect; potency is read from the fitted curve at half-maximal effect.
Compound,"activity change, negative = inhibition",Potency
CC(=O)c1ccc(Nc2nc3ccccc3nc2NS(=O)(=O)c2cccs2)cc1,inactive: -14.3%,
Cc1cc(C)c2nc(N3C(=O)C(O)=C(C(=O)c4ccco4)C3c3cccc(O)c3)sc2c1 (stereo not drawn),,"inconclusive: 31.6 µM [inhibitor, partial curve]"
Cc1ccc(C2c3[nH]c4ccccc4c3CCN2C(=O)CSCc2ccc(F)cc2)cc1 (stereo not drawn),,"inconclusive: 14.1 µM [inhibitor, partial curve]"
O=C(Nc1ccc2nc(-c3ccco3)[nH]c2c1)c1cccs1,inactive: -2.43%,
O=C1NC[C@H](c2ccccc2)N(CCc2cccc(F)c2)C1=O,,"inconclusive: 1120 µM [inhibitor, partial curve]"
CCOC(=O)c1nn(-c2ccc(OC)cc2)c(=O)c2c(N)scc12,,"inconclusive: 12.6 µM [inhibitor, partial curve]"
COc1ccc(N2CC(NC(=O)/C=C\c3ccccc3)CC2=O)cc1OC (stereo not drawn),,"inconclusive: 6.31 µM [inhibitor, full curve]"
Clc1ccc(C=Cc2ccccn2)c(Cl)c1,,"inconclusive: 50.1 µM [inhibitor, single point]"
CCn1nnc2cc(C(=O)Nc3ccc(OC)cc3)ccc21,inactive: -21.4%,
COc1ccc(CC2=CC(=O)c3ccccc3C2=O)cc1,,"inconclusive: 44.7 µM [inhibitor, partial curve]"
COc1cc(OC)c(C2CC(=O)N3CN(C)CSC3=C2C#N)cc1OC (stereo not drawn),inactive: -28.2%,
Cc1ccc(C(=O)N2CCCN(c3nc4cc5c(cc4cc3C#N)OCO5)CC2)cc1,,"inconclusive: 17.8 µM [inhibitor, partial curve]"
CCn1c(CC(=O)Nc2ccccc2F)nnc1SCC(=O)NC1CCCC1,,"inconclusive: 5.01 µM [inhibitor, partial curve]"
CCn1c(Oc2ccccc2)nc2c1c(=O)n(C)c(=O)n2C,inactive: -6.73%,
Cn1c(=O)n(C)c2cc(S(=O)(=O)NCc3ccccc3)ccc21,inactive: -12.7%,
Fc1ccc(Nc2c(-c3ccccn3)nc3ccc(Cl)cn23)cc1,,"inconclusive: 7.08 µM [inhibitor, single point]"
Cc1cc(C)n(CC(=O)NCCC2=CCCCC2)n1,,"inconclusive: 4.47 µM [inhibitor, single point]"
COc1cc(NC(C)CCCN)c2ncccc2c1 (stereo not drawn),,"inconclusive: 35.5 µM [inhibitor, partial curve]"
O=C(NC(=S)Nc1ccc(Cc2ccncc2)cc1)c1ccccc1F,inactive: -5.71%,
CC(C)(C)N1C(=O)[C@H]2[C@@H](c3ccc(Br)cc3)N3C(=O)N(c4cccc(F)c4)C(=O)[C@@]3(Cc3ccccc3)[C@H]2C1=O,,"inconclusive: 44.7 µM [inhibitor, partial curve, poor fit]"
Cc1ccc(C(=O)NCC(c2ccco2)S(=O)(=O)c2ccc(Cl)cc2)cc1C (stereo not drawn),,"inconclusive: 11.2 µM [inhibitor, full curve]"
O=C(c1ccc(Cl)c(Cl)c1)c1cc(-c2ccccn2)c(N2CCOCC2)s1,,"inconclusive: 31.6 µM [inhibitor, partial curve]"
COc1ccc(-c2c(-c3ccc(O)cc3O)n[nH]c2C(F)(F)F)cc1,,"inconclusive: 50.1 µM [inhibitor, partial curve, poor fit]"

Compound,"activity change, negative = inhibition",Potency
Cc1cc2c(cc1S(=O)(=O)NCc1ccccc1Cl)OCC(=O)N2,,"inconclusive: 1.41 µM [inhibitor, full curve, poor fit]"
Cc1cc(NC(=O)Nc2nnc(N3CCCCC3)s2)ccc1Br,inactive: -9.7%,
C/C(N)=C(/C#N)C(=O)CSc1nc2cc(Cl)ccc2c(=O)n1Cc1ccco1,,"inconclusive: 6.31 µM [inhibitor, single point]"
Cc1cccc(C2c3c(n(C)c(=O)n(C)c3=O)N=C3c4ccccc4C(=O)C32)c1 (stereo not drawn),,"inconclusive: 3.98 µM [inhibitor, full curve, poor fit]"
CCOc1cc(/C=C2\NC(=O)NC2=O)cc([N+](=O)[O-])c1O,,"inconclusive: 14.1 µM [inhibitor, partial curve, poor fit]"
CCn1c(SC(C)C)nnc1-c1cc(-c2ccccc2)sc1N,inactive: -26.3%,
Cc1ccc(NC(=O)CCn2c(=O)c3cccn3c3ccccc32)cc1Cl,inactive: -10.4%,
C/C(CC(=O)NCc1ccco1)=N\NC(=O)c1ccc([N+](=O)[O-])cc1Cl,,"inconclusive: 39.8 µM [inhibitor, partial curve, poor fit]"
Cc1nnc(NC(=O)NC(C)N2C(=O)C3C4C=CC(C4)C3C2=O)s1 (stereo not drawn),,"inconclusive: 39.8 µM [inhibitor, single point]"
COc1ccc(Cc2noc(COc3ccc(Cl)cc3)n2)cc1,,"inconclusive: 0.251 µM [inhibitor, full curve, poor fit]"
CCOc1ccc(NC(=S)NNc2ccnc3cc(Cl)ccc23)cc1,inactive: -20.2%,
O=C(COc1ccc([N+](=O)[O-])cc1)N1CCC(c2nc3ccccc3s2)CC1,,"inconclusive: 63.1 µM [inhibitor, partial curve, poor fit]"
CCOc1cccc(CN2CCN(CCCc3ccccc3)C(CCO)C2)c1O (stereo not drawn),inactive: -16.5%,
Cc1ccc(/C=N/NC(=O)c2ccc(N(C)S(=O)(=O)c3ccccc3)cc2)cc1,,"inconclusive: 39.8 µM [inhibitor, single point]"
CN(C)c1ccc(N/C=C/C(=O)c2ccc(F)cc2)cc1,inactive: -6.67%,
Cc1c(Cl)cccc1Nc1n[nH]c(=S)s1,inactive: -12.2%,
COc1ccc(C(=O)c2coc3c2C(=O)C(=O)c2ccccc2-3)cc1,,"inconclusive: 39.8 µM [inhibitor, partial curve, poor fit]"
COc1cc2ccccc2cc1C(=O)NC(=S)Nc1cc(C(=O)O)ccc1C,,"inconclusive: 0.316 µM [inhibitor, partial curve, poor fit]"
NC(=O)c1ccc[n+](CCC[n+]2cccc(C(N)=O)c2)c1,inactive: -9.63%,
O=C(Nc1ccccc1Cl)NC1(C(=O)NCC2CCCO2)CCCCC1 (stereo not drawn),,"inconclusive: 44.7 µM [inhibitor, single point]"
CCOC(=O)C1CCN(c2cc(C)nc3c(-c4ccccc4OC)c(C)nn23)CC1,inactive: -13.6%,
O=S1c2ccccc2Nc2ccccc21,inactive: -30%,
CCc1ccc(S(=O)(=O)NCCc2csc(C)n2)s1,,"inconclusive: 35.5 µM [inhibitor, partial curve, poor fit]"

# A draw from above in order of length of the SMILES, ascending.
Compound,"activity change, negative = inhibition",Potency
COc1ccc(Cc2noc(COc3ccc(Cl)cc3)n2)cc1,,"inconclusive: 0.251 µM [inhibitor, full curve, poor fit]"
CCn1c(SC(C)C)nnc1-c1cc(-c2ccccc2)sc1N,inactive: -26.3%,
COc1ccc(C(=O)c2coc3c2C(=O)C(=O)c2ccccc2-3)cc1,,"inconclusive: 39.8 µM [inhibitor, partial curve, poor fit]"

# The list continues:

Compound,"activity change, negative = inhibition",Potency
O=[N+]([O-])c1ccccc1S(=O)(=O)NC1CCCCCCC1,inactive: -8.23%,
C[C@@H]1CN([C@@H](C)CO)C(=O)CCCn2nncc2CO[C@@H]1CN(C)C(=O)c1ccc(N2CCN(C)CC2)cc1,,"inconclusive: 0.251 µM [inhibitor, full curve, poor fit]"
COc1ccc(-n2nc(C(=O)NCC(=O)NCCCN3CC(C)CC(C)C3)c3ccccc3c2=O)cc1OC (stereo not drawn),,"inconclusive: 5.62 µM [inhibitor, partial curve, poor fit]"
Cc1nn(C)c2c1c(C(F)(F)F)cc(=O)n2C(C)C(=O)NCCC(C)C (stereo not drawn),inactive: -4.48%,
CCOc1ccccc1Nc1nc(-c2sc(C)nc2C)cs1,,"inconclusive: 44.7 µM [inhibitor, partial curve, poor fit]"
Cc1ccc(S(=O)(=O)Nc2ccc3ccccc3n2)cc1,,"inconclusive: 44.7 µM [inhibitor, partial curve, poor fit]"
O=C(Nc1cccnc1)c1ccc([N+](=O)[O-])s1,,"inconclusive: 39.8 µM [inhibitor, partial curve, poor fit]"
CC(C)CCn1cnc2c1c(=O)[nH]c(=O)n2Cc1ccccc1,inactive: -3.3%,
CSCCC(NC(N)=O)C(=O)Nc1ccc2ccccc2c1 (stereo not drawn),inactive: -4.97%,
O=C(Cn1c(=O)oc2cc(S(=O)(=O)N3CCc4ccccc43)ccc21)N1CCCCC1,,"inconclusive: 0.708 µM [inhibitor, full curve, poor fit]"
CC[C@H](C)Cc1cn([C@@H](CCCN=C(NC(=O)OC(C)(C)C)NC(=O)OC(C)(C)C)C(=O)NCCCCCCCCCCC(=O)N2CCN(C(=O)OC(C)(C)C)CC2)nn1,,"inconclusive: 5.01 µM [inhibitor, partial curve]"
COc1ccc(-n2c(=O)[nH]c3cc(C(=O)NCCc4ccc(Cl)cc4)ccc3c2=O)cc1OC,,"inconclusive: 6.31 µM [inhibitor, partial curve, poor fit]"
CSCC(C)N1CCC(CO)(CCCc2ccccc2)CC1 (stereo not drawn),inactive: 3.22%,
O=C(NC(=S)Nn1cnnc1)c1ccc(F)cc1Cl,,"inconclusive: 50.1 µM [inhibitor, partial curve, poor fit]"
CC(=O)c1ccccc1OC(=O)c1ccc([N+](=O)[O-])o1,,"inconclusive: 35.5 µM [inhibitor, partial curve, poor fit]"
NC(=O)C1=C[C@@H](c2ccc(Br)cc2)C[C@@H](OCCCCO)O1,,"inconclusive: 7.94 µM [inhibitor, partial curve]"
O=C(NCCc1ccccc1)c1ccc(-c2ccc(F)cc2)o1,,"inconclusive: 25.1 µM [inhibitor, partial curve]"
O=C(CSC1=NS(=O)(=O)c2cc(F)ccc2N1)NCc1ccccc1Cl,,"inconclusive: 44.7 µM [inhibitor, partial curve]"
Cc1nc2ccccc2nc1OCC(=O)NCc1ccc2c(c1)OCO2,inactive: -8.57%,
Oc1ccc2ccccc2c1C=Nc1ccccc1-c1nc2ccccc2[nH]1,,"inconclusive: 31.6 µM [inhibitor, single point]"
Cc1cc(Cl)c2oc(C(=O)N(C)CCc3cnn(C)c3)c(C)c2c1,inactive: -25.6%,
COc1cc(Cl)c(C)cc1NC(c1ccccc1)c1nnc(-c2ccccc2Cl)o1 (stereo not drawn),,"inconclusive: 8.91 µM [inhibitor, partial curve, poor fit]"
